Record: PubChem BioAssay AID1224831 (NIAID, 2016)

Purpose: 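Retesting screen hits on the TLR4-driven TNF response with six separate siRNAs each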 (follow-up of hits)
Cells: human THP-1 B5 monocytic leukaemia cells carrying a TNF promoter luciferase reporter, made macrophage-like with PMA
Knock-down reagent: single siRNA against human genes, 50 nM
Time to read-out: about 68 h of knock-down, then 4 h LPS
Conditions: LPS (Salmonella minnesota, TLR-grade) at 10 ng/ml for 4 h; PMA 5 ng/ml present during knock-down
Read-out: 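TNF promoter reporter read as dual luciferase ratio after 4 h LPS, normalised per plate to its median, given as replicate mean robust z-score per siRNA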
Reading the numbers: TNF reporter z-score: higher = stronger LPS-induced TNF reporter signal; z-score, median over gene's siRNAs: higher = stronger TNF reporter signal across the gene's siRNAs
Rule for the call: 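Active when the replicate mean z-score is about -1 or lower, or about 1.5 or higher; lowered and raised TNF reporter signal both count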
Meaning of the calls: active = changed TNF reporter (either direction); inactive = little change
In all, the deposit lists about 3,500 reagents; this is a part drawn at random. 731 of all reagents (21%) were called active. 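Active means either lowered or raised reporter signal; the gene-median score did not drive the per-siRNA calls.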 Reagents against one gene are numbered here.

no.	gene	reagent no.	TNF reporter z-score, replicate mean	z-score, median over gene's siRNAs	call
1	CNMD	1	-0.41	0.35	inactive
2	CNMD	2	1.74	0.35	active
3	CNMD	3	2.58	0.35	active
4	CNMD	4	0.14	0.35	inactive
5	CNMD	5	0.56	0.35	inactive
6	CNMD	6	0.06	0.35	inactive
7	CPNE8	1	0.46	0.54	inactive
8	CPNE8	2	0.62	0.54	inactive
9	CPNE8	3	1.21	0.54	inactive
10	CPNE8	4	-0.24	0.54	inactive
11	CPNE8	5	3.81	0.54	active
12	CPNE8	6	-0.47	0.54	inactive
13	ZNF85	1	-0.09	-0.135	inactive
14	ZNF85	2	-0.18	-0.135	inactive
15	ZNF85	3	-0.71	-0.135	inactive
16	ZNF85	4	0.02	-0.135	inactive
17	ZNF85	5	1.98	-0.135	active
18	ZNF85	6	-0.38	-0.135	inactive
19	KCMF1	1	0	-0.025	inactive
20	KCMF1	2	1.69	-0.025	active
21	KCMF1	3	0.6	-0.025	inactive
22	KCMF1	4	-0.05	-0.025	inactive
23	KCMF1	5	-0.09	-0.025	inactive
24	KCMF1	6	-0.13	-0.025	inactive
25	CLEC4A	1	-0.61	0.03	inactive
26	CLEC4A	2	-0.22	0.03	inactive
27	CLEC4A	3	1.8	0.03	active
28	CLEC4A	4	0.28	0.03	inactive
29	CLEC4A	5	-0.51	0.03	inactive
30	CLEC4A	6	3.95	0.03	active
31	THNSL1	1	0.28	0.755	inactive
32	THNSL1	2	2.24	0.755	active
33	THNSL1	3	-0.87	0.755	inactive
34	THNSL1	4	-0.32	0.755	inactive
35	THNSL1	5	1.62	0.755	active
36	THNSL1	6	1.23	0.755	inactive
37	PCDHA3	1	1.34	-0.47	inactive
38	PCDHA3	2	-0.13	-0.47	inactive
39	PCDHA3	3	-0.38	-0.47	inactive
40	PCDHA3	4	-0.56	-0.47	inactive
41	PCDHA3	5	-0.7	-0.47	inactive
42	PCDHA3	6	-0.7	-0.47	inactive
43	C9orf163	1	0.33	0.015	inactive
44	C9orf163	2	-0.31	0.015	inactive
45	C9orf163	3	0.03	0.015	inactive
46	C9orf163	4	0.06	0.015	inactive
47	C9orf163	5	-0.46	0.015	inactive
48	C9orf163	6	0	0.015	inactive
49	ASB14	1	-0.98	-0.545	inactive
50	ASB14	2	-0.08	-0.545	inactive
51	ASB14	3	-1.23	-0.545	active
52	ASB14	4	0.17	-0.545	inactive
53	ASB14	5	-1.28	-0.545	active
54	ASB14	6	-0.11	-0.545	inactive
55	RNF152	1	-1.68	0.42	active
56	RNF152	2	-0.37	0.42	inactive
57	RNF152	3	1.29	0.42	inactive
58	RNF152	4	0.55	0.42	inactive
59	RNF152	5	0.29	0.42	inactive
60	RNF152	6	1.08	0.42	inactive
61	PSMA4	1	-1.4	-1.26	active
62	PSMA4	2	-1.37	-1.26	active
63	PSMA4	3	-0.73	-1.26	inactive
64	PSMA4	4	-1.17	-1.26	active
65	PSMA4	5	-0.56	-1.26	inactive
66	PSMA4	6	-1.35	-1.26	active
67	CDK1	1	0.34	0.285	inactive
68	CDK1	2	-0.07	0.285	inactive
69	CDK1	3	1.45	0.285	inactive
70	CDK1	4	0.23	0.285	inactive
71	CDK1	5	-0.32	0.285	inactive
72	CDK1	6	3.08	0.285	active
73	AGTR2	1	1.83	0.185	active
74	AGTR2	2	-0.44	0.185	inactive
75	AGTR2	3	-0.6	0.185	inactive
76	AGTR2	4	0.81	0.185	inactive
77	AGTR2	5	1.12	0.185	inactive
78	AGTR2	6	-0.54	0.185	inactive
79	TNFSF4	1	1.16	1.05	inactive
80	TNFSF4	2	1.15	1.05	inactive
81	TNFSF4	3	-0.2	1.05	inactive
82	TNFSF4	4	-0.85	1.05	inactive
83	TNFSF4	5	0.95	1.05	inactive
84	TNFSF4	6	1.48	1.05	inactive
85	CHD3	1	1.03	0.54	inactive
86	CHD3	2	0.1	0.54	inactive
87	CHD3	3	0.55	0.54	inactive
88	CHD3	4	0.53	0.54	inactive
89	CHD3	5	0.1	0.54	inactive
90	CHD3	6	0.72	0.54	inactive
91	TGM3	1	0.99	0.715	inactive
92	TGM3	2	1.37	0.715	inactive
93	TGM3	3	0.43	0.715	inactive
94	TGM3	4	0.44	0.715	inactive
95	TGM3	5	1.98	0.715	active
96	TGM3	6	0.26	0.715	inactive
97	FBXO2	1	-0.45	0.64	inactive
98	FBXO2	2	1.32	0.64	inactive
99	FBXO2	3	1.26	0.64	inactive
100	FBXO2	4	0.02	0.64	inactive
101	FBXO2	5	-0.02	0.64	inactive
102	FBXO2	6	2.21	0.64	active
103	NMNAT2	1	-0.06	1.4	inactive
104	NMNAT2	2	-0.7	1.4	inactive
105	NMNAT2	3	1.45	1.4	inactive
106	NMNAT2	4	1.8	1.4	active
107	NMNAT2	5	1.35	1.4	inactive
108	NMNAT2	6	2.88	1.4	active

Limited to “TNF reporter z-score, replicate mean” (8 entries from above):
RNF152 #1 = -1.68
RNF152 #2 = -0.37
RNF152 #3 = 1.29
RNF152 #4 = 0.55
RNF152 #5 = 0.29
RNF152 #6 = 1.08
PSMA4 #1 = -1.4
PSMA4 #2 = -1.37
